Patent publication US20100286024A1 (priority 2005, published 2010)

Legend:
[1] = general procedure: Fmoc solid-phase peptide synthesis; HMPA-PEGA resin; HCTU/DIPEA; details: whole synthesis, overall, scale of the general procedure 0.2 mmol
[2] = general procedure: Fmoc solid-phase peptide synthesis; PL-PEGA resin (Polymer Labs) with HMPA handle; HCTU/DIPEA; details: whole synthesis

GLP-1 NH2-L-His-L-Ala-urea-9-37 (EGTFTSDVSSYLEGQAAKEFIAWLVKGRG; N-terminus of Glu9 joined through a urea carbonyl (from carbonyldiimidazole) to the amino group of NH2-L-Ala-L-His-carboxamide; the dipeptide runs in the reversed direction and ends in a carboxamide)
isolated yield [1]: about 10% overall yield

L-His-NH-NH-CH2-C(O)-Glu9-37
difficulty met ([2]; scale of the general procedure 0.2 mmol): This was found to be 39% of theoretical, and the coupling was repeated.

L-His-NH—NH—CH(CH3)—C(O)-Glu9-37
difficulty met ([2]; scale 0.2 mmol): Fmoc release of the resin showed a failed coupling
